The name of at least one read-out is uncertain.
What follows are compounds tested on tumor endothelial cells (CT26.CL25 colon cancer tumor) (assay: Colon CT26 ex vivo model of tumor angiogenesis). Conditions: Conc. 10 μm.
Assay type: cell-based, mouse
Experimental: This example describes a procedure to prepare a primary tumor angiogenesis model for assessing the efficacy of anti-cancer candidate agents.
1. The day before the experiment, spray all necessary tools with 70% ethanol and sterilize them under UV light overnight, including blade, dissecting and micro-dissecting scissors and […]. Place 24-well dishes at 4° C. to pre-chill plates and thaw Matrigel 24 hours before tumor dissection.
2. Spray 70% ethanol on working bench. Prepare two sterile petri dishes with 10 mL sterile PBS. Steps 3 and 4 are for mouse tumor models. For fresh human tumor, directly go to step 5.
3. Euthanize the tumor-bearing mice. Spray 70% ethanol on the mouse and remove the tumor using sterilized dissecting tools (avoid the fur). Rinse the tumor in petri dish with sterile PBS to remove ethanol and fur. Transfer the tumor to a new petri dish with PBS for dissection. Place the dish on ice.
4. Using pre-chilled sterile pipet tips to seed regular Matrigel in 24 well plates on ice. Matrigel (30 μL) is dropped in the middle of each well without touching the edge of the well (avoid introducing bubbles if possible).
5. Cut the tumor in halves using the sterile blade. Identify and isolate healthy tumor tissue that is not necrotic and is within the tumor capsule. Cut the healthy tumor tissue into small pieces. For instance, a suitable size for the tumor tissue is 0.5 mm (H)×0.5 mm (L)×0.3 mm (D) with a total volume of 0.075 mm^3.
6. Gently transfer and embed each tumor piece in the Matrigel drop in the 24-well plate. Place the embedded piece in the bottom and middle of each Matrigel drop. Keep the plate on ice all the time.
7. After seeding the tumor pieces, plates are incubated in a 37° C. cell culture incubator without medium for 10 minutes in order for the Matrigel to solidify.
8. Endothelial Growth Medium (0.5 mL) is added to each well and incubated at 37° C. with 5% CO2. Wait until the new endothelial cells have grown out of the tumor or are larger than 3 mm in diameter until treatment. This usually takes 4 days for the LL2 Lewis lung cancer model and 7 days for the CT26 colon cancer model. For human tumor models, the growth time is typically 2-3 weeks, depending on the tumor type. Media is changed every 4 days during prolonged culture. Typically, when the tumor tissue grows to 2 mm in diameter, it is good for drug testing. A size of about 3 mm in diameter can make visualization easier.
9. When the assay is ready to be analyzed for cell death (e.g., 48 hours after drug addition), prepare the dye mixture by mixing 6 μL of green dye to stain live cells (5 mg/mL Fluorescein diacetate or FDA in DMSO) with 30 μL of red dye (2.5 mg/mL Propidium iodide or PI in PBS) to stain dead cells in an Eppendorf tube. The FDA dye needs to be stored frozen in a −20° C. freezer because it has a labile ester bond.
10. Add 1 μL of the dye mixture to each well of the 24-well dish. It is usually performed one 24-well dish at a time given the amount of time needed to take pictures (the green dye is not as stable in the cells in the long term).
11. Gently rock the dish a few times to mix the dye with the media in the wells and incubate the dish at 37° C. for 10 min (too long incubation can make the green signal too intense).
12. Wash each well with 0.5 mL of sterile PBS and then add 0.5 mL of phenol red free SFM to each well. Alternatively 0.5 mL of regular Endothelial Cell Growth Media can be added to each well if this well needs to be continuously maintained after the experiment.
13. Look through all wells on an inverted microscope using the 2× objective lens to observe morphological changes.
14. Taking pictures in the red and green channels would allow not only the recording of the result but also more accurate quantitation of the result. To take pictures for all the wells, first pick a well that has robust red and green signals. […]

| Structure (SMILES) | 48 hrs (morphology observations after 48 hours) |
| --- | --- |
| COc1ccc(S(=O)(=O)c2cnc3ccc(OC(F)(F)F)cc3c2-n2cncn2)cc1 [compound 86, 3-((4-methoxyphenyl)sulfonyl)-4-(1H-1,2,4-triazol-1-yl)-6-(trifluoromethoxy)quinoline] | *** (100% of endothelial cells vesicularize in cell shape) |
| CCOC(=O)c1ccc2ncc(S(=O)(=O)c3ccc(CC)cc3)c(-n3cncn3)c2c1 [compound 80, ethyl 3-((4-ethylphenyl)sulfonyl)-4-(1H-1,2,4-triazol-1-yl)quinoline-6-carboxylate] | *** (100% of endothelial cells vesicularize in cell shape) |
| CCCCOc1ccc(S(=O)(=O)c2cnc3ccc(OC(F)(F)F)cc3c2-n2cncn2)cc1 [compound 93, 3-((4-butoxyphenyl)sulfonyl)-4-(1H-1,2,4-triazol-1-yl)-6-(trifluoromethoxy)quinoline] | *** (100% of endothelial cells vesicularize in cell shape) |

Same assay, conditions: Conc. 20 μm

| Structure (SMILES) | 48 hrs (morphology observations after 48 hours) |
| --- | --- |
| CCc1ccc(S(=O)(=O)c2cnc3ccc(OC(F)(F)F)cc3c2-n2ccnc2)cc1 [compound 118, 3-((4-ethylphenyl)sulfonyl)-4-(1H-imidazol-1-yl)-6-(trifluoromethoxy)quinoline] | *** (100% of endothelial cells vesicularize in cell shape) |
| CCCCCCCOc1ccc(S(=O)(=O)c2cnc3ccc([S+](C)[O-])cc3c2N2CCN(C)CC2)cc1 (centres unmarked) [compound 259, 3-((4-(heptyloxy)phenyl)sulfonyl)-4-(4-methylpiperazin-1-yl)-6-(methylsulfinyl)quinoline] | *** (100% of endothelial cells vesicularize in cell shape) |

Same assay, conditions: Conc. 40 μm

| Structure (SMILES) | 48 hrs (morphology observations after 48 hours) |
| --- | --- |
| CCc1ccc(S(=O)(=O)c2cnc3ccc(C(=O)O)cc3c2N2CCC(O)CC2)cc1 [compound 65, 3-((4-ethylphenyl)sulfonyl)-4-(4-hydroxypiperidin-1-yl)quinoline-6-carboxylic acid] | 0 |
| CCN(CC)CCNC(=O)c1ccc2ncc(S(=O)(=O)c3ccc(OC)cc3)c(N3CCCN(C)CC3)c2c1 [compound 166, N-(2-(diethylamino)ethyl)-3-((4-methoxyphenyl)sulfonyl)-4-(4-methyl-1,4-diazepan-1-yl)quinoline-6-carboxamide] | *** (100% of endothelial cells vesicularize in cell shape) |
| O=[N+]([O-])c1ccc(S(=O)(=O)c2cnc3ccc(OC(F)(F)F)cc3c2N2CCC(O)CC2)cc1 [compound 61, 1-(3-((4-nitrophenyl)sulfonyl)-6-(trifluoromethoxy)quinolin-4-yl)piperidin-4-ol] | 0 |
| CCCCOc1ccc(S(=O)(=O)c2cnc3ccc(C(=O)OCC)cc3c2N2CCC(N3CCC(c4ccccc4)CC3)CC2)cc1 [compound 215, ethyl 3-((4-butoxyphenyl)sulfonyl)-4-(4-phenyl-[1,4′-bipiperidin]-1′-yl)quinoline-6-carboxylate] | 0 |
| CCc1ccc(S(=O)(=O)c2cnc3ccc(OC(F)(F)F)cc3c2N2CCC(N3CCC(O)CC3)CC2)cc1 [compound 102, 1′-(3-((4-ethylphenyl)sulfonyl)-6-(trifluoromethoxy)quinolin-4-yl)-[1,4′-bipiperidin]-4-ol] | 0 |
| CCCCOc1ccc(S(=O)(=O)c2cnc3ccc(C(=O)N(CC)CC)cc3c2N2CCC(N3CCCCC3)CC2)cc1 [compound 201, 4-([1,4′-bipiperidin]-1′-yl)-3-((4-butoxyphenyl)sulfonyl)-N,N-diethylquinoline-6-carboxamide] | * (50% or less of cells vesicularize in cell shape) |
| CCc1ccc(S(=O)(=O)c2cnc3ccc(OC(F)(F)F)cc3c2N(CC)CC)cc1 [compound 81, N,N-diethyl-3-((4-ethylphenyl)sulfonyl)-6-(trifluoromethoxy)quinolin-4-amine] | 0 |
| CCCCOc1ccc(S(=O)(=O)c2cnc3ccc(SC)cc3c2N2CCCN(CCN3CCCCC3)CC2)cc1 [compound 206, 3-((4-butoxyphenyl)sulfonyl)-6-(methylthio)-4-(4-(2-(piperidin-1-yl)ethyl)-1,4-diazepan-1-yl)quinoline] | **** (100% of endothelial cells vesicularize in cell shape and look flattened in morphology (indicating disintegration of the cell body)) |
| COc1ccc(S(=O)(=O)c2cnc3ccc(OC(F)(F)F)cc3c2N2CCCN(C)CC2)cc1OC [compound 57, 3-((3,4-dimethoxyphenyl)sulfonyl)-4-(4-methyl-1,4-diazepan-1-yl)-6-(trifluoromethoxy)quinoline] | * (50% or less of cells vesicularize in cell shape) |
| CCc1ccc(S(=O)(=O)c2cnc3ccc(OC(F)(F)F)cc3c2N2CCCN(CC(=O)O)CC2)cc1 [compound 42, 2-(4-(3-((4-ethylphenyl)sulfonyl)-6-(trifluoromethoxy)quinolin-4-yl)-1,4-diazepan-1-yl)acetic acid] | 0 |
| CCCCOc1ccc(S(=O)(=O)c2cnc3ccc(SC)cc3c2N2CCCN(C)CC2)cc1 [compound 160, 3-((4-butoxyphenyl)sulfonyl)-4-(4-methyl-1,4-diazepan-1-yl)-6-(methylthio)quinoline] | **** (100% of endothelial cells vesicularize in cell shape and look flattened in morphology (indicating disintegration of the cell body)) |
| COc1ccc(S(=O)(=O)c2cnc3ccc(SC)cc3c2N2CCCN(C)CC2)cc1OC [compound 154, 3-((3,4-dimethoxyphenyl)sulfonyl)-4-(4-methyl-1,4-diazepan-1-yl)-6-(methylthio)quinoline] | * (50% or less of cells vesicularize in cell shape) |
| CCc1ccc(S(=O)(=O)c2cnc3ccc(OC(F)(F)F)cc3c2N2CCCN(CCN(CC)CC)CC2)cc1 [compound 100, N,N-diethyl-2-(4-(3-((4-ethylphenyl)sulfonyl)-6-(trifluoromethoxy)quinolin-4-yl)-1,4-diazepan-1-yl)ethan-1-amine] | **** (100% of endothelial cells vesicularize in cell shape and look flattened in morphology (indicating disintegration of the cell body)) |
| CCOC(=O)c1ccc2ncc(S(=O)(=O)c3ccc(OC)cc3)c(N3CCCN(CCN(CC)CC)CC3)c2c1 [compound 139, ethyl 4-(4-(2-(diethylamino)ethyl)-1,4-diazepan-1-yl)-3-((4-methoxyphenyl)sulfonyl)quinoline-6-carboxylate] | 0 |
| CCc1ccc(S(=O)(=O)c2cnc3ccc(C(=O)O)cc3c2N2CCC(N3CCCCC3)CC2)cc1 [compound 67, 4-([1,4′-bipiperidin]-1′-yl)-3-((4-ethylphenyl)sulfonyl)quinoline-6-carboxylic acid] | 0 |
| CCOC(=O)c1ccc2ncc(S(=O)(=O)c3ccc(OC)cc3)c(N3CCCN(C)CC3)c2c1 [compound 144, ethyl 3-((4-methoxyphenyl)sulfonyl)-4-(4-methyl-1,4-diazepan-1-yl)quinoline-6-carboxylate] | 0 |
| CCCCOc1ccc(S(=O)(=O)c2cnc3ccc(C(=O)OCC)cc3c2N2CCC(N3CCC(O)CC3)CC2)cc1 [compound 161, ethyl 3-((4-butoxyphenyl)sulfonyl)-4-(4-hydroxy-[1,4′-bipiperidin]-1′-yl)quinoline-6-carboxylate] | **** (100% of endothelial cells vesicularize in cell shape and look flattened in morphology (indicating disintegration of the cell body)) |
| CCCCN(CCCC)c1c(S(=O)(=O)c2ccc(CC)cc2)cnc2ccc(OC(F)(F)F)cc12 [compound 87, N,N-dibutyl-3-((4-ethylphenyl)sulfonyl)-6-(trifluoromethoxy)quinolin-4-amine] | 0 |
